Results deposited as PubChem BioAssay AID602196 (INSERM, 2012)
Assay: 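Modifiers of cisplatin sensitivity in A549 cells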. Cell system: human A549 lung cancer cells. Reagent: siRNA pair against human genes. Time to read-out: 48 h transfection before cisplatin; time from cisplatin to read-out not stated. Treatment: cisplatin at a dose killing half of control-siRNA cells; exact dose and duration not given. Measurement: 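Shift in cisplatin death relative to control siRNA, from -50 (all cells die) to +50 (no cells die); siRNAs harmful on their own scored 0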. Direction: two-siRNA summed score (-2 to +2): higher = both siRNAs protect from cisplatin killing; -2 means both sensitise; mean protection from cisplatin (shift in death) and protection from cisplatin (shift in death), siRNA C and protection from cisplatin (shift in death), siRNA D: higher = protection from cisplatin killing. Rule for the call: 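siRNAs harmful alone (LDH or WST-1) get 0; others get +1 for less and -1 for more cisplatin killing; genes are active when the two siRNAs give the same sign, summing to ±2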. Calls: active = both siRNAs shift cisplatin killing the same way; inactive = no consistent shift, or siRNA harmful alone.
Shown is a random part of about 23,000 reagents tested. Of all reagents, 455 (2%) were called active. 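Active includes both protection and sensitisation; some change values fall well beyond the stated -50 to +50 range.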 Unmarked entries are inactive. Not stated in the record: the amount of reagent.

| gene knocked down | two-siRNA summed score (-2 to +2) | mean protection from cisplatin (shift in death) (%) | protection from cisplatin (shift in death), siRNA C (%) | protection from cisplatin (shift in death), siRNA D (%) |
| --- | --- | --- | --- | --- |
| LOC390773 | 0 | 15.8 | 13.3 | 18.3 |
| LOC442073 | 0 | 13.6 | 4.5 | 22.7 |
| GALP | 0 | -3.7 | 0.6 | -7.9 |
| CEP19 | 0 | -0.2 | -4.8 | 4.3 |
| RPL39 | 0 | 36.3 | 31.7 | 40.8 |
| EMD | 0 | -6.8 | -2.1 | -11.5 |
| OSTN | -2 (active) | -20 | -15.1 | -24.8 |
| UBE2U | 0 | 9.5 | 2.7 | 16.4 |
| UHMK1 | 0 | -3.7 | -13.4 | 6.1 |
| ABCA1 | -2 (active) | -9.1 | -4.4 | -13.8 |
| NPHP3 | 0 | -8.2 | -6.7 | -9.6 |
| TUSC2 | -1 | -35.2 | -19.7 | -50.6 |
| ESPL1 | 0 | -9.3 | -9.5 | -9.2 |
| MED12 | -1 | -9.7 | -15 | -4.5 |
| SLC17A5 | 0 | 0.4 | 2.3 | -1.4 |
| LINC00343 | 0 | 1.9 | -2.4 | 6.3 |
| LOC440445 | 1 | 10.2 | -11.8 | 32.3 |
| C1orf162 | 0 | 1 | 3.7 | -1.6 |
| C16orf82 | 0 | 17.6 | 17.1 | 18.1 |
| EIF3F | 0 | -3.7 | 4.5 | -11.9 |
| WNT16 | 0 | -0.7 | 4.5 | -5.9 |
| CD9 | -1 | -16 | -30.3 | -1.7 |
| SLC38A3 | 0 | 1.9 | 2.9 | 0.8 |
| TMEM160 | 0 | 5.6 | 9.7 | 1.6 |
| PRX | 0 | -8.5 | -9.9 | -7.1 |
| TAF5L | 0 | -7.1 | -2.7 | -11.6 |
| LOC389203 | 0 | 4.5 | 14.1 | -5 |
| LOC388143 | 0 | 15.1 | -7.2 | 37.4 |
| GTF2IRD2 | 0 | 2.6 | 2.4 | 2.8 |
| TENT5B | 0 | 1.4 | -0.6 | 3.5 |
| SGSM3 | 0 | 24.3 | 22.1 | 26.5 |
| SPPL2C | 0 | 0.2 | -3.6 | 4.1 |
| MESP1 | 0 | 12.4 | 10.8 | 14 |
| MDC1 | 1 | 8.4 | 14.7 | 2.1 |
| FAM53B | -1 | -7.8 | 2.4 | -18.1 |
| SPRR3 | 0 | -1.4 | 0.4 | -3.1 |
| SCGN | 0 | 11.9 | 5.7 | 18.2 |
| PDE6D | 1 | 11.5 | 17.3 | 5.8 |
| LOC400960 | 0 | 5 | -5.1 | 15 |

Ordered by “mean protection from cisplatin (shift in death) (%)” (lowest first): some entries from above.
| gene knocked down | two-siRNA summed score (-2 to +2) | mean protection from cisplatin (shift in death) (%) | protection from cisplatin (shift in death), siRNA C (%) | protection from cisplatin (shift in death), siRNA D (%) |
| --- | --- | --- | --- | --- |
| EIF3F | 0 | -3.7 | 4.5 | -11.9 |
| WNT16 | 0 | -0.7 | 4.5 | -5.9 |
| C1orf162 | 0 | 1 | 3.7 | -1.6 |
| LINC00343 | 0 | 1.9 | -2.4 | 6.3 |
| LOC440445 | 1 | 10.2 | -11.8 | 32.3 |
| C16orf82 | 0 | 17.6 | 17.1 | 18.1 |
